# Measured values taken from PubChem BioAssay AID1381 (University of Pittsburgh Molecular Library Screening Center, 2008).
# This is one part of the list.
# Assay: inhibitors of GR-EGFP nuclear translocation, primary screen, dynein cargo transport inhibitor project, imaging, high-content, 3617.4 mouse cells (AID 1381)
# Conditions: stimulated with dexamethasone, 1 µM
# [1] = measured here: cell count per field, at 20 µM
# [2] = measured here: cytoplasmic GR-EGFP intensity, at 20 µM, stronger effect = higher value
# [3] = measured here: nuclear GR-EGFP intensity, at 20 µM, stronger effect = lower value
# [4] = measured here: cell count per field, at 50 µM
# [5] = measured here: cytoplasmic GR-EGFP intensity, at 50 µM, stronger effect = higher value
# [6] = measured here: nuclear GR-EGFP intensity, at 50 µM, stronger effect = lower value
compound,measurement,setting,value
Cc1ccc(NCCc2c([N+](=O)[O-])cc([N+](=O)[O-])cc2[N+](=O)[O-])cc1,z-score,[1],0.213
same,z-score,[2],-0.148
same,z-score,[3],-0.553
Nc1cccc2c([As](=O)(O)O)cccc12,z-score,[1],0.21
same,z-score,[2],-0.175
same,z-score,[3],-0.292
CCCOP(=S)(Nc1nc(N)cc(=O)[nH]1)OCCC,z-score,[1],-0.499
same,z-score,[2],-0.272
same,z-score,[3],0.69
Cc1ccc(C)c(NP(C)(=O)Oc2ccccc2)c1 (centres undefined),z-score,[4],0.428
same,z-score,[5],-0.199
same,z-score,[6],-1.04
CCOP(=O)(Nc1cccc2ccccc12)OCC,z-score,[1],-1.37
same,z-score,[2],-0.0521
same,z-score,[3],1.69
O=C(OC1CN2CCC1CC2)c1ccc(Cl)cc1 (centres undefined),z-score,[1],-0.0146
same,z-score,[2],-0.286
same,z-score,[3],-0.151
COc1cc(C(=O)NCC2(N3CCOCC3)CCCCC2)cc(Cl)c1OC(C)C,z-score,[1],0.546
same,z-score,[2],-0.238
same,z-score,[3],0.151
O=[As](O)(O)c1cccnc1,z-score,[1],0.461
same,z-score,[2],-0.29
same,z-score,[3],-0.117
COc1ccccc1OP(C)(=O)Nc1cccc(Br)c1 (centres undefined),z-score,[1],-0.207
same,z-score,[2],-0.795
same,z-score,[3],-0.306
O=[As](O)(c1cccc(O)c1)c1cccc(O)c1,z-score,[1],0.425
same,z-score,[2],-0.215
same,z-score,[3],-0.157
Cc1cccc(OCC(=O)OC2CN3CCC2CC3)c1 (centres undefined),z-score,[1],0.0838
same,z-score,[2],-0.15
same,z-score,[3],0.257
Cc1cc(C)cc(OP(C)(=O)Nc2ccc(C)cc2C)c1 (centres undefined),z-score,[1],-0.0741
same,z-score,[2],0.29
same,z-score,[3],-0.536
CCOC(=O)c1ccc(NP(C)(=O)Oc2cc(C)cc(C)c2)cc1 (centres undefined),z-score,[1],1.21
same,z-score,[2],-0.266
same,z-score,[3],-0.182
NC(=O)Nc1ccc([As](=O)(O)O)cc1,z-score,[1],1.1
same,z-score,[2],-0.791
same,z-score,[3],-0.506
CN(C(=O)Cc1ccccc1)[C@@H]1CC[C@]2(CCCO2)C[C@H]1N1CCCC1,z-score,[1],-0.265
same,z-score,[2],-0.744
same,z-score,[3],0.339
CCOP1(=S)c2c(C)nn(CCC#N)c2N=C(c2ccc(F)cc2)N1C (centres undefined),z-score,[1],0.107
same,z-score,[2],-0.176
same,z-score,[3],0.174
O=[N+]([O-])c1ccc2c(c1)nnn2O,z-score,[4],1.34
same,z-score,[5],-0.295
same,z-score,[6],-0.214
CC1=NCCc2c1[nH]c1ccccc21.O=[N+]([O-])c1cc([N+](=O)[O-])c(O)c([N+](=O)[O-])c1,z-score,[1],-0.0409
same,z-score,[2],-0.188
same,z-score,[3],-0.126
O=C(O)c1cccc(Nc2c([N+](=O)[O-])cc([N+](=O)[O-])cc2[N+](=O)[O-])c1,z-score,[1],-0.0416
same,z-score,[2],0.349
same,z-score,[3],0.662
CCOP1(=S)c2c(C)nn(CCC#N)c2N=C(c2ccccc2F)N1C (centres undefined),z-score,[4],0.445
same,z-score,[5],-0.253
same,z-score,[6],0.5
O=P(Nc1nccs1)(c1ccccc1)c1nc2ccccc2s1 (centres undefined),z-score,[1],0.115
same,z-score,[2],-0.152
same,z-score,[3],-0.313
O=P(Nc1nccs1)(Oc1ccccc1)Oc1ccccc1,z-score,[1],0.459
same,z-score,[2],-0.196
same,z-score,[3],0.199
CS(=O)(=O)c1cc([N+](=O)[O-])c2no[n+]([O-])c2c1,z-score,[1],-0.104
same,z-score,[2],-0.212
same,z-score,[3],-0.402
O=C(O)COc1ccc([As](=O)(O)O)cc1[N+](=O)[O-],z-score,[1],1.16
same,z-score,[2],-0.296
same,z-score,[3],-0.41
Nc1ccccc1[As](=O)(O)c1ccccc1,z-score,[1],0.282
same,z-score,[2],-0.287
same,z-score,[3],-0.293
CCOC(=O)c1ccc(NP(C)(=O)Oc2ccccc2)cc1 (centres undefined),z-score,[1],0.834
same,z-score,[2],-0.337
same,z-score,[3],-0.417
ClCCSc1nnc(-c2cccnc2)o1,z-score,[4],0.281
same,z-score,[5],-0.25
same,z-score,[6],0.051
COc1ccccc1OP(C)(=O)Nc1ccc(C)cc1 (centres undefined),z-score,[1],-0.001
same,z-score,[2],-0.181
same,z-score,[3],0.372
